# According to US20060140858A1, “Drug pre-targeting by means of bi-specific antibodies and hapten constructs comprising a carrier peptide and the active agent(s)” (Immunomedics, Inc., priority 2002, published 2006):
# Tests used:
# [1] = Pretargeting: 125-I-hMN-14 × 734 bsAb, 48 h later 111-In-indium-IMP-156, biodistribution; format: in vivo, nude mice; conditions: female, nude (Taconic NCRNU), mouse, 3 h post peptide
# [2] = Clearance of 99m-Tc-IMP-192 in BALB/c mice; format: in vivo; conditions: mouse, total radioactivity
# Experimental: In vitro stability of the Tc-99m complex of this peptidyl chelate was established by incubations in saline, fresh human serum and 10 mM cysteine for up to 20 h. In vivo stability was examined by analysis of urine collected from a mouse injected with 99m-Tc-IMP-192 in a pretargeting experiment.
# [3] = Pretargeting: 125-I-hMN-14 × 734 bsAb, 24 h later 99m-Tc-IMP-192, biodistribution; format: in vivo, Nude mice; conditions: female, NCRNU nude, mouse, total radioactivity, 24 h post peptide
tissue uptake at 3 h ([1]; Liver),tissue uptake at 3 h ([1]; Spleen),"tissue uptake at 1 h ([2]; large intestine, Lg.Int.)",tissue uptake at 1 h ([2]; Stomach),"tissue uptake at 2 h ([2]; Stomach, 2 h)",tissue uptake at 24 h ([3]; Liver),tissue uptake at 24 h ([3]; Spleen),Compound
0.5 ± 0.09 %ID/g,0.5 ± 0.1 %ID/g,,,,,,"CC(=O)N[C@@H](Cc1ccccc1)C(=O)N[C@@H](CCCCNC(=O)CN(CCN(CCN(CC(=O)O)CC(=O)O)CC(=O)O)CC(=O)O)C(=O)N[C@@H](Cc1ccc(O)cc1)C(=O)N[C@@H](CCCCNC(=O)CN(CCN(CCN(CC(=O)O)CC(=O)O)CC(=O)O)CC(=O)O)C(N)=O [IMP 156, Ac-Phe-Lys(DTPA)-Tyr-Lys(DTPA)-NH2]"
,,0.41 ± 0.54 %ID/g,0.39 ± 0.18 %ID/g,0.42 ± 0.18 %ID/g,0.4 ± 0.08 %ID/g,0.4 ± 0.2 %ID/g,"CC(=O)N[C@@H](CCCCNC(=O)CN(CCN(CCN(CC(=O)O)CC(=O)O)CC(=O)O)CC(=O)O)C(=O)N[C@@H](Cc1ccc(O)cc1)C(=O)N[C@@H](CCCCNC(=O)CN(CCN(CCN(CC(=O)O)CC(=O)O)CC(=O)O)CC(=O)O)C(=O)N[C@@H](CCCCNC(=O)[C@H](CS)NC(=O)C=NNC(N)=S)C(N)=O [IMP 192, Ac-Lys(DTPA)-Tyr-Lys(DTPA)-Lys(Tscg-Cys)-NH2]"
